This assay deals with T1, BirA*-TubC (Dictyostelium discoideum) (UniProt Q55AR3).
T1 sequence: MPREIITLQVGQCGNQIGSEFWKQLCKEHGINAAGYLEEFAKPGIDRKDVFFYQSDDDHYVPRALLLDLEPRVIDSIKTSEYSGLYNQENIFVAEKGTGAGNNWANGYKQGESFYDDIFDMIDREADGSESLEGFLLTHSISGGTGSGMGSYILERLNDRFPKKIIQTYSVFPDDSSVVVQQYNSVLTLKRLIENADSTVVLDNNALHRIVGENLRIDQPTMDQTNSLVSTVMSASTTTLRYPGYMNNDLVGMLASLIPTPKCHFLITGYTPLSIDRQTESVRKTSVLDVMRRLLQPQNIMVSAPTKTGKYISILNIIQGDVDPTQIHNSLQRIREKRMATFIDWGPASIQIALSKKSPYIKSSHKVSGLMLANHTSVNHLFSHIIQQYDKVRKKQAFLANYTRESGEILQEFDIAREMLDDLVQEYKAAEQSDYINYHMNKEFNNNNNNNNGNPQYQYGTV
Kind of assay: proximity labelling; BioID in Dictyostelium strains expressing biotinylase-tagged proteins; extracts of isolated centrosomes blotted in parallel with streptavidin-alkaline phosphatase and specific antibodies.

No constants are given. Whether binding was seen depends on the method and setting. Binding seen in cells or lysates may run through a third protein. These calls come from enrichment with a bait or labelling near it, and not all partners need be listed.

Turning to CDK5RAP2, the binding entry is “binds”. In the case of CP148 it was “binds”.
